# Measured values published in US20060275303A1, “Modulating angiogenesis using LL-37/HCAP-18” (priority 2003, published 2006).
# At least one structure is not confirmed: it was looked up by name or label, or the drawing left a doubt.
# Tested on: HUVECs
# Assay: Inhibition of the LL-37/hCAP-18-induced proliferative response of endothelial cells
# Assay type: cell-based, human
# Conditions: without LL-37/hCAP-18
# Protocol: Endothelial cells from human umbilical veins (HUVEC) were isolated as described before^8. 10^4 cells were seeded on six well plastic dishes in serum free medium. Different concentrations of LL-37 were added to the culture medium. VEGF (5 ng/ml, 165 amino acid variant, Sigma Chemicals, Munich, Germany) was used as positive control. After 72 h the cells were detached from the support and counted. Experiments were repeated ten times using synthetic LL-37/hCAP-18 (37 C-terminal amino acids) and the hexapeptide WKYMVm, wherein “m” denotes the D-form of the amino acid methionine, from two different sources (IPF Pharmaceuticals, Hannover, Germany and Institute for Biochemistry, Humboldt-University of Berlin, Germany). As control peptide we used the peptide L-14 […] to have any interactions with FPRL1 from the same source (Humboldt-University). Human serum (10%, donor with ABO blood group O) was applied under the same conditions to analyze any impact on induction of proliferation by LL-37. […]
# As a next step we analyzed which mechanisms might be involved in the angiogenic activity of LL-37/hCAP-18. We applied inhibitors of G-protein coupled receptors (pertussis toxin), PI-3K (wortmannin), and PKC (GF 109203X) and monitored cell proliferation as outcome parameter.
smiles,measurement,value
COC[C@H]1OC(=O)c2coc3c2[C@@]1(C)C1=C(C3=O)[C@@H]2CCC(=O)[C@@]2(C)C[C@H]1OC(C)=O [wortmannin],effect of the inhibitor on baseline cell proliferation,no effect on the baseline measurements
